Experimental findings from publication PMC3513293 are described below.

This assay has as its target T1, p47 (UniProt O35987).
T1 sequence: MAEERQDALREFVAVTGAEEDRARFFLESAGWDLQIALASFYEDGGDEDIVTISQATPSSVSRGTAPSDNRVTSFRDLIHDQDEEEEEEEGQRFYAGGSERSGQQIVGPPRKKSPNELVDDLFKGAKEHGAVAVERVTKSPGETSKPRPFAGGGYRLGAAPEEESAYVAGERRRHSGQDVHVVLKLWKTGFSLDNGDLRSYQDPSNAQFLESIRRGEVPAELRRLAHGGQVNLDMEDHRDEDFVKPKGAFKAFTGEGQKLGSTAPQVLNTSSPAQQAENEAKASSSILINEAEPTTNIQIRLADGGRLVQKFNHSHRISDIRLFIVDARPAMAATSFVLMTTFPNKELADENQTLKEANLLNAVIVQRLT
The assay is described as follows: SPR; competition; p47 amine-coupled to CM5 (2000 RU); p97/VCP or p97-N-D1 captured to 500 RU; UN coinjected during dissociation at several concentrations, without or with ATP or ATPγS; 20 μl/min, 25°C, PBS; regeneration with 50 mM NaOH; both purified. A general note: In SPR one partner is held on a chip, and binding of the other changes the refractive index at the surface.

Results are given in words; binding and its absence hold for the method and conditions named. Some entries that bind do so weakly or less than the wild type.

With “p97/Valosin-containing protein (VCP), full length (from UniProt P55072 1-806) (enzyme)”, the binding entry was “binds”.
